According to paper PMC8268887 (International Journal of Molecular Sciences, 2021):
“And” between values parts separate entries of the source, which are not always exact repeats. Equal entries are not always repeated.

Tested on: HepG2 cell line ATCC HB-8065
Assay: Antiproliferative activity on HepG2 cell line (MTT assay)
Format: cell-based
Details: for SI (Selectivity Index): ratio between IC50 for effect on HepG2 cell viability and MIC against E. coli
Description: Effect of compounds on mammalian cell viability was estimated on the HepG2 cell line ATCC HB-8065. In brief, HepG2 cells were seeded into flat-bottomed 96-well plates at a concentration of 5000 cells per well. Subsequently, the cells were incubated for 24 h in a humidified incubator (5% CO2, 37 °C). Then, the medium was removed, and the cells were incubated for 48 h in a humidified incubator (5% CO2, 37 °C) with peptidomimetics in serial dilutions. Then, an 3-(4,5-dimethylthiazol-2-yl)-2,5-diphenyltetrazolium bromide (MTT) assay was performed as previously described. In brief, after incubation with the test compounds, the culture medium was removed, and then fresh medium with 0.2 mg/mL MTT was added into each well of the plate. The cells were then incubated (3 h, 37 °C, 5% CO2), followed by removal of the medium with MTT and addition of 200 μL dimethyl sulfoxide at once to each sample. Absorbance of MTT was measured using the spectrophotometer TECAN Infinite M1000 at 540 nm. The relative viability was calculated by using the formula: ODtreated cells × 100/ODcontrol cells. The IC50 values are calculated by using the program Graph Pad Prism® 5.0. For all compounds, the test range was 10–1280 μg/mL.

SMILES: NCCCC[C@H](NC(=O)CCN(Cc1ccc(F)cc1)C(=O)[C@H](CCCCN)NC(=O)CCN(Cc1ccc(F)cc1)C(=O)[C@H](CCCCN)NC(=O)CCN(Cc1ccc(F)cc1)C(=O)[C@H](CCCCN)NC(=O)CCN(Cc1ccc(F)cc1)C(=O)[C@H](CCCCN)NC(=O)CCN(Cc1ccc(F)cc1)C(=O)[C@@H](N)CCCCN)C(=O)N(CCC(N)=O)Cc1ccc(F)cc1 [Compound 1, H-[Lys-βNPhe(4-F)]6-NH2]
- SI (Selectivity Index): 58–116

SMILES: NCCCC[C@H](NC(=O)CCN(Cc1ccc(F)cc1)C(=O)[C@H](CCCCN)NC(=O)CCN(Cc1ccc(F)cc1)C(=O)[C@H](CCCCN)NC(=O)COCCNC(=O)CCN(Cc1ccc(F)cc1)C(=O)[C@H](CCCCN)NC(=O)CCN(Cc1ccc(F)cc1)C(=O)[C@H](CCCCN)NC(=O)CCN(Cc1ccc(F)cc1)C(=O)[C@@H](N)CCCCN)C(=O)N(CCC(N)=O)Cc1ccc(F)cc1 [Compound 6, H-[X]3-sPEG1-[X]3-NH2]
- SI (Selectivity Index): 190

SMILES: NCCCC[C@H](NC(=O)CCN(Cc1ccc(F)cc1)C(=O)[C@H](CCCCN)NC(=O)CCN(Cc1ccc(F)cc1)C(=O)[C@H](CCCCN)NC(=O)COCCOCCNC(=O)CCN(Cc1ccc(F)cc1)C(=O)[C@H](CCCCN)NC(=O)CCN(Cc1ccc(F)cc1)C(=O)[C@H](CCCCN)NC(=O)CCN(Cc1ccc(F)cc1)C(=O)[C@@H](N)CCCCN)C(=O)N(CCC(N)=O)Cc1ccc(F)cc1 [Compound 7, H-[X]3-sPEG2-[X]3-NH2]
- SI (Selectivity Index): 155

SMILES: NCCCC[C@H](NC(=O)CCN(Cc1ccc(F)cc1)C(=O)[C@H](CCCCN)NC(=O)CCN(Cc1ccc(F)cc1)C(=O)[C@H](CCCCN)NC(=O)COCCOCCOCCNC(=O)CCN(Cc1ccc(F)cc1)C(=O)[C@H](CCCCN)NC(=O)CCN(Cc1ccc(F)cc1)C(=O)[C@H](CCCCN)NC(=O)CCN(Cc1ccc(F)cc1)C(=O)[C@@H](N)CCCCN)C(=O)N(CCC(N)=O)Cc1ccc(F)cc1 [Compound 8, H-[X]3-sPEG3-[X]3-NH2]
- SI (Selectivity Index): 150

SMILES: NCCCC[C@H](NC(=O)CCN(Cc1ccc(F)cc1)C(=O)[C@H](CCCCN)NC(=O)CCN(Cc1ccc(F)cc1)C(=O)[C@H](CCCCN)NC(=O)CCOCCOCCOCCOCCNC(=O)CCN(Cc1ccc(F)cc1)C(=O)[C@H](CCCCN)NC(=O)CCN(Cc1ccc(F)cc1)C(=O)[C@H](CCCCN)NC(=O)CCN(Cc1ccc(F)cc1)C(=O)[C@@H](N)CCCCN)C(=O)N(CCC(N)=O)Cc1ccc(F)cc1 [Compound 9, H-[X]3-sPEG4-[X]3-NH2]
- SI (Selectivity Index): 173

SMILES: NCCCC[C@H](NC(=O)CCN(Cc1ccc(F)cc1)C(=O)[C@H](CCCCN)NC(=O)CCN(Cc1ccc(F)cc1)C(=O)[C@H](CCCCN)NC(=O)CCOCCOCCOCCOCCOCCOCCNC(=O)CCN(Cc1ccc(F)cc1)C(=O)[C@H](CCCCN)NC(=O)CCN(Cc1ccc(F)cc1)C(=O)[C@H](CCCCN)NC(=O)CCN(Cc1ccc(F)cc1)C(=O)[C@@H](N)CCCCN)C(=O)N(CCC(N)=O)Cc1ccc(F)cc1 [Compound 10, H-[X]3-sPEG6-[X]3-NH2]
- SI (Selectivity Index) for A. baumannii (ratio between HepG2 IC50 and MIC against A. baumannii): 200
- SI (Selectivity Index): 100–200

SMILES: NCCCC[C@H](NC(=O)CCN(Cc1ccc(F)cc1)C(=O)[C@H](CCCCN)NC(=O)CCN(Cc1ccc(F)cc1)C(=O)[C@H](CCCCN)NC(=O)COCCOCCN)C(=O)N(CCC(=O)NCCOCCOCC(=O)N[C@@H](CCCCN)C(=O)N(CCC(=O)N[C@@H](CCCCN)C(=O)N(CCC(=O)N[C@@H](CCCCN)C(=O)N(CCC(=O)NCCOCCOCC(N)=O)Cc1ccc(F)cc1)Cc1ccc(F)cc1)Cc1ccc(F)cc1)Cc1ccc(F)cc1 [Compound 12, H-sPEG2-[X]3-sPEG2-[X]3-sPEG2-NH2]
- SI (Selectivity Index): 21–42

SMILES: NCCCC[C@H](NC(=O)CCN(Cc1ccc(F)cc1)C(=O)[C@H](CCCCN)NC(=O)CCN(Cc1ccc(F)cc1)C(=O)[C@H](CCCCN)NC(=O)CCOCCOCCOCCOCCN)C(=O)N(CCC(=O)NCCOCCOCCOCCOCCC(=O)N[C@@H](CCCCN)C(=O)N(CCC(=O)N[C@@H](CCCCN)C(=O)N(CCC(=O)N[C@@H](CCCCN)C(=O)N(CCC(=O)NCCOCCOCCOCCOCCC(N)=O)Cc1ccc(F)cc1)Cc1ccc(F)cc1)Cc1ccc(F)cc1)Cc1ccc(F)cc1 [Compound 14, H-sPEG4-[X]3-sPEG4-[X]3-sPEG4-NH2]
- SI (Selectivity Index): 28

SMILES: NCCCC[C@H](NC(=O)CCN(Cc1ccc(F)cc1)C(=O)[C@H](CCCCN)NC(=O)COCCNC(=O)CCN(Cc1ccc(F)cc1)C(=O)[C@H](CCCCN)NC(=O)CCN(Cc1ccc(F)cc1)C(=O)[C@H](CCCCN)NC(=O)COCCNC(=O)CCN(Cc1ccc(F)cc1)C(=O)[C@H](CCCCN)NC(=O)CCN(Cc1ccc(F)cc1)C(=O)[C@@H](N)CCCCN)C(=O)N(CCC(N)=O)Cc1ccc(F)cc1 [Compound 15, H-[X]2-sPEG1-[X]2-sPEG1-[X]2-NH2]
- SI (Selectivity Index): 142

SMILES: NCCCC[C@H](NC(=O)CCN(Cc1ccc(F)cc1)C(=O)[C@H](CCCCN)NC(=O)COCCOCCNC(=O)CCN(Cc1ccc(F)cc1)C(=O)[C@H](CCCCN)NC(=O)CCN(Cc1ccc(F)cc1)C(=O)[C@H](CCCCN)NC(=O)COCCOCCNC(=O)CCN(Cc1ccc(F)cc1)C(=O)[C@H](CCCCN)NC(=O)CCN(Cc1ccc(F)cc1)C(=O)[C@@H](N)CCCCN)C(=O)N(CCC(N)=O)Cc1ccc(F)cc1 [Compound 16, H-[X]2-sPEG2-[X]2-sPEG2-[X]2-NH2]
- SI (Selectivity Index): 300–350 and 172–344

SMILES: NCCCC[C@H](NC(=O)CCN(Cc1ccc(F)cc1)C(=O)[C@H](CCCCN)NC(=O)COCCOCCOCCNC(=O)CCN(Cc1ccc(F)cc1)C(=O)[C@H](CCCCN)NC(=O)CCN(Cc1ccc(F)cc1)C(=O)[C@H](CCCCN)NC(=O)COCCOCCOCCNC(=O)CCN(Cc1ccc(F)cc1)C(=O)[C@H](CCCCN)NC(=O)CCN(Cc1ccc(F)cc1)C(=O)[C@@H](N)CCCCN)C(=O)N(CCC(N)=O)Cc1ccc(F)cc1 [Compound 17, H-[X]2-sPEG3-[X]2-sPEG3-[X]2-NH2]
- SI (Selectivity Index): 160

SMILES: NCCCC[C@H](NC(=O)CCN(Cc1ccc(F)cc1)C(=O)[C@H](CCCCN)NC(=O)CCOCCOCCOCCOCCNC(=O)CCN(Cc1ccc(F)cc1)C(=O)[C@H](CCCCN)NC(=O)CCN(Cc1ccc(F)cc1)C(=O)[C@H](CCCCN)NC(=O)CCOCCOCCOCCOCCNC(=O)CCN(Cc1ccc(F)cc1)C(=O)[C@H](CCCCN)NC(=O)CCN(Cc1ccc(F)cc1)C(=O)[C@@H](N)CCCCN)C(=O)N(CCC(N)=O)Cc1ccc(F)cc1 [Compound 18, H-[X]2-sPEG4-[X]2-sPEG4-[X]2-NH2]
- SI (Selectivity Index): 300–350 and 160–320
